PubChem BioAssay AID1259405 | NCATS – 2018

Aim: 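Silenced genes that increase secreted GFP made by CHO cells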 (primary screen)
Cells: Chinese hamster CHO-K1 ovary cells with stable secreted eGFP expression
Reagents: single siRNA against mouse genes, 0.8 pmol siRNA per well (2 µl of 400 nM stock)
Duration: 3 days
Measurement: 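Percent of the per-plate non-targeting control median for intracellular GFP per well by laser scanning cytometry and for cell viability by ATP luminescence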
Reading the numbers: GFP, % of control: higher = more GFP per well, higher productivity; viability (ATP), % of control: higher = more viable cells (more ATP)
Hit rule: 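a knock-down is called active if GFP reaches 120% or more of non-targeting control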
The deposit covers about 50,000 reagents; below is a part drawn at random. Over the whole deposit, about 4,000 (8%) were called active. 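Mouse siRNA library applied to hamster cells; one well for each siRNA.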

Kcnrg (potassium channel regulator) [SID363553992]
- GFP, % of control: 75.3
- viability (ATP), % of control: 74.7
- call: inactive

Kcnrg (potassium channel regulator) [SID363561949]
- GFP, % of control: 102
- viability (ATP), % of control: 64.6
- call: inactive

Kcnrg (potassium channel regulator) [SID363565687]
- GFP, % of control: 60.6
- viability (ATP), % of control: 75.6
- call: inactive

Tgm4 (transglutaminase 4 (prostate)) [SID363570594]
- GFP, % of control: 78.8
- viability (ATP), % of control: 84
- call: inactive

Tgm4 (transglutaminase 4 (prostate)) [SID363579394]
- GFP, % of control: 65.7
- viability (ATP), % of control: 165
- call: inactive

Tgm4 (transglutaminase 4 (prostate)) [SID363583266]
- GFP, % of control: 70.5
- viability (ATP), % of control: 154
- call: inactive

Rreb1 (ras responsive element binding protein 1) [SID363555446]
- GFP, % of control: 57
- viability (ATP), % of control: 52.7
- call: inactive

Rreb1 (ras responsive element binding protein 1) [SID363564107]
- GFP, % of control: 90.9
- viability (ATP), % of control: 59.5
- call: inactive

Rreb1 (ras responsive element binding protein 1) [SID363587653]
- GFP, % of control: 80.4
- viability (ATP), % of control: 86.8
- call: inactive

Rnf139 (ring finger protein 139) [SID363572641]
- GFP, % of control: 66.2
- viability (ATP), % of control: 29.2
- call: inactive

Rnf139 (ring finger protein 139) [SID363577921]
- GFP, % of control: 117
- viability (ATP), % of control: 73.5
- call: inactive

Rnf139 (ring finger protein 139) [SID363582145]
- GFP, % of control: 102
- viability (ATP), % of control: 124
- call: inactive

Card10 (caspase recruitment domain family, member 10) [SID363581635]
- GFP, % of control: 106
- viability (ATP), % of control: 80.7
- call: inactive

Card10 (caspase recruitment domain family, member 10) [SID363589129]
- GFP, % of control: 136
- viability (ATP), % of control: 89.8
- call: active

Reformatted: entries from further up.
gene | PubChem SID | GFP, % of control | viability (ATP), % of control | call
Tgm4 (transglutaminase 4 (prostate)) | SID363579394 | 65.7 | 165 | inactive
Tgm4 (transglutaminase 4 (prostate)) | SID363583266 | 70.5 | 154 | inactive

The results go on:
Cd247 (CD247 antigen) [SID363544366]
- GFP, % of control: 67
- viability (ATP), % of control: 62.1
- call: inactive

Cd247 (CD247 antigen) [SID363550694]
- GFP, % of control: 73
- viability (ATP), % of control: 86.7
- call: inactive

Cd247 (CD247 antigen) [SID363557243]
- GFP, % of control: 66.3
- viability (ATP), % of control: 64.2
- call: inactive

Gga3 [SID363547765]
- GFP, % of control: 155
- viability (ATP), % of control: 103
- call: active

Gga3 [SID363558534]
- GFP, % of control: 39.5
- viability (ATP), % of control: 41.3
- call: inactive

Gga3 [SID363560292]
- GFP, % of control: 50.6
- viability (ATP), % of control: 93.8
- call: inactive

Gtse1 (G two S phase expressed protein 1) [SID363539886]
- GFP, % of control: 92.8
- viability (ATP), % of control: 93.7
- call: inactive

Gtse1 (G two S phase expressed protein 1) [SID363561187]
- GFP, % of control: 81.6
- viability (ATP), % of control: 77.7
- call: inactive

Gtse1 (G two S phase expressed protein 1) [SID363564223]
- GFP, % of control: 54.3
- viability (ATP), % of control: 54
- call: inactive

Lhfpl1 (lipoma HMGIC fusion partner-like 1) [SID363540493]
- GFP, % of control: 48.7
- viability (ATP), % of control: 64.5
- call: inactive

Lhfpl1 (lipoma HMGIC fusion partner-like 1) [SID363542245]
- GFP, % of control: 73.7
- viability (ATP), % of control: 62.2
- call: inactive

Lhfpl1 (lipoma HMGIC fusion partner-like 1) [SID363567161]
- GFP, % of control: 59
- viability (ATP), % of control: 68.9
- call: inactive

Aars2 (alanyl-tRNA synthetase 2, mitochondrial) [SID363569616]
- GFP, % of control: 102
- viability (ATP), % of control: 94.3
- call: inactive

Aars2 (alanyl-tRNA synthetase 2, mitochondrial) [SID363577360]
- GFP, % of control: 61.6
- viability (ATP), % of control: 67.6
- call: inactive

Aars2 (alanyl-tRNA synthetase 2, mitochondrial) [SID363578768]
- GFP, % of control: 66.5
- viability (ATP), % of control: 81.7
- call: inactive
